From article PMC12368267
No constants are given. Whether binding was seen depends on the method and setting. For some of these results: Binding seen in cells or lysates may run through a third protein. Some binding calls cover weakened binding; strength is not graded here.

Protein sequences, listed by entry. Tags and fused reporters are not part of them. Lines headed by an entry give the natural chain unless they say otherwise; changes in a name come on top.
UniProt P16455: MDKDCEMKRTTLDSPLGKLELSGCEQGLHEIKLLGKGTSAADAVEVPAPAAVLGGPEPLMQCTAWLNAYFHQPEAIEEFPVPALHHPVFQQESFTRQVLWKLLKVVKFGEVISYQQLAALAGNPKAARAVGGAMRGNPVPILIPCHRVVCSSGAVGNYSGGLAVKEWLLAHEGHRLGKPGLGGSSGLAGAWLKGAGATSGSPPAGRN
UniProt Q93009: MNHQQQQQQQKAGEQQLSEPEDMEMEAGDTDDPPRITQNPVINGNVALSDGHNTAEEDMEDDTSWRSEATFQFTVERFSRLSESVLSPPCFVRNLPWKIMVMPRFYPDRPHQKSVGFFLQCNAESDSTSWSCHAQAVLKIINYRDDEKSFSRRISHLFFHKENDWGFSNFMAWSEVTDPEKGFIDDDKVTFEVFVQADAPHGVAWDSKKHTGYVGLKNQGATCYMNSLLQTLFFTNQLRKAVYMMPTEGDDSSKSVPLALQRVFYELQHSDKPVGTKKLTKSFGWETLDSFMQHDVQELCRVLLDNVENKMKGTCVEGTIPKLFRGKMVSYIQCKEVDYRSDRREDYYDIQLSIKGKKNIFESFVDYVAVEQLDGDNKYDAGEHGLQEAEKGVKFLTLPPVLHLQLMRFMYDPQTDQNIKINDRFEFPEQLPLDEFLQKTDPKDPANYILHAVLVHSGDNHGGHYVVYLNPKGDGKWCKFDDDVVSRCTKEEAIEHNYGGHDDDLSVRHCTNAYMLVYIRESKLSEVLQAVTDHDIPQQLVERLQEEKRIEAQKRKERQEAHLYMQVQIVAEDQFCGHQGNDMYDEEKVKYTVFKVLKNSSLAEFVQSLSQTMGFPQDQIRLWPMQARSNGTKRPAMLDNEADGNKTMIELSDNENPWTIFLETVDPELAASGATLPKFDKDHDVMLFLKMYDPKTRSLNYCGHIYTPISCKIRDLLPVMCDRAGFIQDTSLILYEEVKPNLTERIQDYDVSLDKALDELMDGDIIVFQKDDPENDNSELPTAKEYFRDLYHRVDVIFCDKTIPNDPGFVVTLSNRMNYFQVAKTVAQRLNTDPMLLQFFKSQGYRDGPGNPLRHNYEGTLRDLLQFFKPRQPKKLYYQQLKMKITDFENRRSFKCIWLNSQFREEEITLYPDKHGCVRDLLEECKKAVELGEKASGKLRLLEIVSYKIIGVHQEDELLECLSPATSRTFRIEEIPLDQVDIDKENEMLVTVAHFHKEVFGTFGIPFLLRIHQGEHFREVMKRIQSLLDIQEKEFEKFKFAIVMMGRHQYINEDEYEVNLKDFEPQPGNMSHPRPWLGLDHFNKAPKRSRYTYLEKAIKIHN
UniProt Q93008: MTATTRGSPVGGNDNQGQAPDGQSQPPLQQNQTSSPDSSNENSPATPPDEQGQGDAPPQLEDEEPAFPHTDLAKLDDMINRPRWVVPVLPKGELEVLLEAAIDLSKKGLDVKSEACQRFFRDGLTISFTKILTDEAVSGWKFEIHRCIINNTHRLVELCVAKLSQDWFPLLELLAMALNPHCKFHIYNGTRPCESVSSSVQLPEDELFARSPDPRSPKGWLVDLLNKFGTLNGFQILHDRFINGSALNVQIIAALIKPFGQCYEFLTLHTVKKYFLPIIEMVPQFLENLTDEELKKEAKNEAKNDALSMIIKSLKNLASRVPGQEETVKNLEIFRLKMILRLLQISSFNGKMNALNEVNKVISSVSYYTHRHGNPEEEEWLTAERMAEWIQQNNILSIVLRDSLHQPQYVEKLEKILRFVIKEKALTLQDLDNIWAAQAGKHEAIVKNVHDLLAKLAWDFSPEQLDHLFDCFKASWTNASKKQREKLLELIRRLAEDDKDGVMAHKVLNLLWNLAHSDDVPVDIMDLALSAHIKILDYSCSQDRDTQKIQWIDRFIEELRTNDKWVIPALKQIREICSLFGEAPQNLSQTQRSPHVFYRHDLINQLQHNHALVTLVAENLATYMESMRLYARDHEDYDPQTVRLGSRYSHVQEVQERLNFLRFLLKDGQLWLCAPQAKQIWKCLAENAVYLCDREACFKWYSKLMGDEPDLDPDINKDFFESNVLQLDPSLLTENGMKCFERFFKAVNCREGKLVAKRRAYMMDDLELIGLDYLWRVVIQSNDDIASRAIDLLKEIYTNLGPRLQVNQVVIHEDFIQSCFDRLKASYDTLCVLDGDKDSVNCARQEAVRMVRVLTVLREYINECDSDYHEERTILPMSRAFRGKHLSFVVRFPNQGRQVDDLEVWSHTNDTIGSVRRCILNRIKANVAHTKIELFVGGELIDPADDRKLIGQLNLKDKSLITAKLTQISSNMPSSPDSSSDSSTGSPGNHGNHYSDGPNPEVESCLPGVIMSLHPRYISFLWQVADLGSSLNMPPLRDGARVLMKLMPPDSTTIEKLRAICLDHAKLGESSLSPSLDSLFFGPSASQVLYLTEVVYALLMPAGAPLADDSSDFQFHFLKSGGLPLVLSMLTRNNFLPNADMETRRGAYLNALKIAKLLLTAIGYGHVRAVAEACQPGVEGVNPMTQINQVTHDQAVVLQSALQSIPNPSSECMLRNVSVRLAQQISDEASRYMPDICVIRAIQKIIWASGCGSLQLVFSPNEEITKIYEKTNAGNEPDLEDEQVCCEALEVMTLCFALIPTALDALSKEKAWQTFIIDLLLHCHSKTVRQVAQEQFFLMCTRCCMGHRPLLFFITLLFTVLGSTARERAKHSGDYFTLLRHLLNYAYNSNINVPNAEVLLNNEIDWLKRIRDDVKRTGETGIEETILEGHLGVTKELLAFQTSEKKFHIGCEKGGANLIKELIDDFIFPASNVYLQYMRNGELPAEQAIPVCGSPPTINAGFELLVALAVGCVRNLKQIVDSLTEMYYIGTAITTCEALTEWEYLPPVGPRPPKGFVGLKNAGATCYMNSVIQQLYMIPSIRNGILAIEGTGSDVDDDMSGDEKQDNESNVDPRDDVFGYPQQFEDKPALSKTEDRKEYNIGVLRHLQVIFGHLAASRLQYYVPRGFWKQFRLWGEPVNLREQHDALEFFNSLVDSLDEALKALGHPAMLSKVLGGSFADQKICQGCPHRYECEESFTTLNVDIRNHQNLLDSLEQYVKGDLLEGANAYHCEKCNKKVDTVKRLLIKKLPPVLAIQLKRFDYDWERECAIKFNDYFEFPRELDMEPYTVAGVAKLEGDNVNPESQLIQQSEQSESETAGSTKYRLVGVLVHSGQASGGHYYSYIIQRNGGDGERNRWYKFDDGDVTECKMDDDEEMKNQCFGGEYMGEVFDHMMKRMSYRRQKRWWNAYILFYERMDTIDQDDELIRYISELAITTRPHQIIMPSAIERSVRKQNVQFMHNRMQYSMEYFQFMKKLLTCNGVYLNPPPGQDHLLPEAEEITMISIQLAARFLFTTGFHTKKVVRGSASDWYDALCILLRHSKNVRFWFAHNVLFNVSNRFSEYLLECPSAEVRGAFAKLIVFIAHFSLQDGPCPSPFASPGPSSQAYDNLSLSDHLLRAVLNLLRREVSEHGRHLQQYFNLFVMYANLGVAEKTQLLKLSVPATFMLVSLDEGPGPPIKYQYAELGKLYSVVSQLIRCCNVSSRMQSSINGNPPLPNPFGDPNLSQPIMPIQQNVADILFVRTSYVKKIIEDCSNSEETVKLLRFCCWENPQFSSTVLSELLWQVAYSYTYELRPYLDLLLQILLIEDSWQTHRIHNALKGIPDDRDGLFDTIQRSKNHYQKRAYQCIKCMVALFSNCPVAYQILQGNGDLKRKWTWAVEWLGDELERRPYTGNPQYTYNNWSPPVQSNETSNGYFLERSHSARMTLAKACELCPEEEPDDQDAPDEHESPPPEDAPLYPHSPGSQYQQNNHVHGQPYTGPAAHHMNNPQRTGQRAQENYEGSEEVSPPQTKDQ

Experiments:
[1] = target: HA-tagged MGMT, stably expressed in HEK293T cells (UniProt P16455); assay: co-IP; HEK293T cells stably expressing HA-MGMT transfected with Flag-tagged DUBs, USP7 WT, C223S or truncated mutants; lysis buffer 150 mM NaCl, 50 mM Tris-HCl pH 7.9, 1% Triton X-100, 10% glycerol, 2 mM DTT; anti-Flag M2 or HA-agarose beads at 4 °C overnight; western blotting
[2] = target: HA-tagged MGMT, stably expressed in HEK293T cells (UniProt P16455); assay: co-IP; reciprocal co-IP: HA immunoprecipitation after expression of the indicated vectors; western blotting
GST-MGMT = GST-MGMT (UniProt P16455); assay: pull-down; in vitro reciprocal GST pulldown using GST-MGMT; both purified
[3] = target: MGMT, endogenous in T98G cells (human (endogenous in T98G)) (UniProt P16455); assay: co-IP; endogenous proteins in T98G cells; immunoprecipitation with an anti-MGMT antibody
[4] = target: Flag-tagged MGMT (O6-methylguanine-DNA-methyltransferase), expressed in T98G cells (UniProt P16455); assay: co-IP; T98G cells transduced with Flag-tagged GFP or Flag-MGMT, treated or not with 300 µM TMZ for 40 min; immunoprecipitation and western blotting

## Flag-tagged USP7 C223S (catalytically inactive mutant), transfected in HEK293T cells (from UniProt Q93009 1-1102) (enzyme)
[1]
  binding: binds

## Flag-tagged USP7 wild type, transfected in HEK293T cells (from UniProt Q93009 1-1102) (enzyme)
[2]
  binding: binds
[1]
  binding: binds

## Flag-tagged USP9X, transfected in HEK293T cells (from UniProt Q93008 1-2554) (enzyme)
[1]
  binding: no binding

## USP7 used in the GST pulldown assay with GST-MGMT (from UniProt Q93009 1-1102) (enzyme)
GST-MGMT
  binding: binds

## ubiquitin-specific protease 7 (USP7), endogenous in T98G cells (from UniProt Q93009 1-1102) (enzyme)
[3]
  binding: binds
[4]
  binding: binds
